Results from PMC10803214.
No constants are given. Whether binding was seen depends on the method and setting. Binding seen in cells or lysates may run through a third protein. Some binding calls cover weakened binding; strength is not graded here.

Biological target: T1, DmMIC60 (endogenous, fly mitochondria) (D. melanogaster (endogenous in flies)) (UniProt P91928)
T1 sequence: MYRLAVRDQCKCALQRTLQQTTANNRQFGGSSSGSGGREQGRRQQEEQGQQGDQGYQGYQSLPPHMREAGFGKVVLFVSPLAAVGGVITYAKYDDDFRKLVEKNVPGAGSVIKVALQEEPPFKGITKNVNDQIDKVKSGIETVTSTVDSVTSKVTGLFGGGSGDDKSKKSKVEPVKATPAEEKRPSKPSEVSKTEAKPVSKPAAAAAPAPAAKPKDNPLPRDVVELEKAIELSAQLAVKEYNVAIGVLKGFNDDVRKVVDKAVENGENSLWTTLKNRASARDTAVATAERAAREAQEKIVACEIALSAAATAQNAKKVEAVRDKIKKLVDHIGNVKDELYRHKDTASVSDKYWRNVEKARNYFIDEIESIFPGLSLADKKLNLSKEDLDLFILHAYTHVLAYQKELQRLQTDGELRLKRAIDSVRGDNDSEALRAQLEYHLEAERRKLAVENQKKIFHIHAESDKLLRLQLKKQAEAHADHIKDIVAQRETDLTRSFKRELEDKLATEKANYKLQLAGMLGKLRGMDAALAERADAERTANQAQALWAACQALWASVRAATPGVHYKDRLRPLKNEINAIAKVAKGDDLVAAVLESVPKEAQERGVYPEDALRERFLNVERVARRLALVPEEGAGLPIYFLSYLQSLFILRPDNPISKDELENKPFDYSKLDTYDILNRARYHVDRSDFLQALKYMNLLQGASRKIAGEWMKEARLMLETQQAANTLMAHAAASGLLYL
Test: co-IP; mitochondria isolated from WT flies (1 mg), solubilised with 1% digitonin; antisera on protein A-Sepharose, 1 h at 4°C, 10 washes with 0.3% digitonin, eluted with 0.1 M glycine pH 2.8; immunoblot; DmMIC60 and CG41128 used as baits

B1: DmMIC13 (endogenous, fly mitochondria) (protein, UniProt Q9VVH3 1-122)
chain: MVLGFLVRGGLVAATVYYTQKVGIWGDSDQTDKLYNDIKSELRPHVQKLEKQLPFEVPQLPKTGEMRFLAKHYYNEGVKNTFRFIHMLPCYAGRGLKKVKDTFQDFAQSPAIAGGAESSPPK
binding: binds
